Results are given in words; binding and its absence hold for the method and conditions named. Binding seen in cells or lysates may run through a third protein. These calls come from enrichment with a bait or labelling near it, and not all partners need be listed. A no says only that the protein was not detected with the bait.
B1: PF3D7_1119600 (a putative PfFTSH zinc metalloprotease) (protein, UniProt Q8IIH1 1-1052)
chain: MYRADIIRKKSTCLLLPSEKNAFQKKKWLLKKSLDNLLDYNNTQKECLHSLSYLKDRINNNNNNNMKNGYKELAVCSSSIKYNSNVDYNIFFDSLNFICEHVQNIWSNKNKHVQINENISNMFVKFLKKYNHFKNGNYKIKNRLYKKDSFIKPSNYLQSFLLNGKCDEGEKIIKKILKDNKSLKSIKKKIMRKNEDFIWSRERNMTNLSGHNQSEHTLGESIINNNNNNNIINNVIKKHMSFTNSRYIGFLNNNVSKYKLNFFQFLKNMYLSKAPKGFERFENKSPNSNNFKPEEEKPRKYDNYFFYIFFILLLFFLLFVDSNGLYNEITQNDFFYKYLSKGYVEKIKLINKDYVKAYLNSHGIKKYHMKYVSFRVGNSDSFEKKVEAVQREMNIKRDELIEVQYVNEANILNEVKGYIPSILFFLLLIFLFQKITLKNVTNSGMDKLFKFSKISPINKNSLKTDVKFSSVAGMKQAKEEIMEFVDFLKNPTKYEILGAKIPKGALLCGAPGTGKTLLAKAVAGEANVPFFNISGSDFIEVFVGIGPSRVRELFAQARKHAPSIIFIDEIDAVGRKRSKGGFSGGGNDERENTLNQMLVEMDGFHTSNDKVVVLAGTNRVDILDPAITRPGRFDRIVNISKPDINERSEIFQVHLKNLKLHESLDIKNISYILASLTPGFVGADIANVVNEGAIQCARRSNLLGVQIKDFELAIERVIGGLPKSSSLISPLEKKIISYHETGHALIGWFLEFADPVLKVSIIPRNNGALGYSQHLSEEIMLFSRDAILDKIAVILGGRAAEELFIGKITTGAIDDLNKVTQLAYSYVSQYGMNQEIGLVSFQPNSNSEYNLYRPHSECLAHLIDNEVRSLIETQYKRVKSILMKNEKHVHNLANLLYEKETISYHDIVKCVGERPYPVKSAYEKFVKANPYKAISSEPLLEDKKESDNMKGDTSNIGNVNTNDFEKGHIKENTKECTKENTKENTKDNTKENTKENTKEYTKDNTKNQYNILGNSSKDDTKQTSSKLNEEKCKEKLGDSKKKDNKISNVKLR
B2: flap endonuclease I (PF3D7_0408500) (enzyme, UniProt Q7K734 1-672)
chain: MGIKGLTKFIADAAPNAIKEIKIESLMGRIIAIDASMSLYQFIIAIRDSEQYGNLTNESGETTSHISGLMSRSIRLMENGLKPIYVFDGAPPELKGSELEKRGEKRQKAEELLKKAKEEGNLEEIKKQSGRTVRVTRKQNEEAKKLLTLMGIPIIEAPCEAESQCAFLTKYNLAHATATEDADALVFGTKILIRNLNANATSNQNKNKNNSKRGYILTEINLEQVLKGLNLTMDEFIDFCILCGCDYCDTIKGIGSKTAYNLIKEYNCIEKIIENIDQNKYQVPSNFRFQEARKSFINPNVLPKEDIKIDWNEPQIEELKHFLIKDYNFNELRVTNYINRLLKARKVTTQRRLDNFFTACTKKSTKLIVEETKKEQTLPARKGKKRPTAGDKNKQKAVKRKIEQANANGHHKMKEENKSVDNEKNEDGIKSVDNEKNEDGIKSVDDEKNLDDEKNLDDEKNKDDEKNKDDEKNKDDEKNKDDEKNKDDEKKSLDNFSSNLFDSDKESESGNIIKNEKQNMDDEKINDNLPSLFGDHSRIRHTENKDNISDINNNNNNNNSSSNNNNISNNHFNSVSSNSTFNSSTKLKSEDTLKSNSPLKEDSPNSYNNIKNNNHTININSQINNHKEPISNNNLNNINNSTEIKKKNTLFLLPFCPKDVTNVKKKKYTQRC
B3: cytochrome c oxidase I (protein, UniProt Q02766 1-476)
chain: MVLNRYSLITNCNHKTLGLYYLWFSFLFGSYGFLLSVILRTELYSSSLRIIAQENVNLYNMIFTIHGIIMIFFNIMPGLFGGFGNYFLPILCGSPELAYPRINSISLLLQPIAFVLVILSTAAEFGGGTGWTLYPPLSTSLMSLSPVAVDVIIFGLLVSGVASIMSSLNFITTVMHLRAKGLTLGILSVSTWSLIITSGMLLLTLPVLTGGVLMLLSDLHFNTLFFDPTFAGDPILYQHLFWFFGHPEVYILILPAFGVISHVISTNYCRNLFGNQSMILAMGCIAVLGSLVWVHHMYTTGLEVDTRAYFTSTTILISIPTGTKVFNWICTYMSSNFGMIHSSSLLSLLFICTFTFGGTTGVILGNAAIDVALHDTYYVIAHFHFVLSIGAIIGLFTTVSAFQDNFFGKNLRENSIVILWSMLFFVGVILTFLPMHFLGFNVMPRRIPDYPDALNGWNMICSIGSTMTLFGLLIFK

By UniProt entry, the sequences of proteins in these tests, tags left out.
UniProt Q02768: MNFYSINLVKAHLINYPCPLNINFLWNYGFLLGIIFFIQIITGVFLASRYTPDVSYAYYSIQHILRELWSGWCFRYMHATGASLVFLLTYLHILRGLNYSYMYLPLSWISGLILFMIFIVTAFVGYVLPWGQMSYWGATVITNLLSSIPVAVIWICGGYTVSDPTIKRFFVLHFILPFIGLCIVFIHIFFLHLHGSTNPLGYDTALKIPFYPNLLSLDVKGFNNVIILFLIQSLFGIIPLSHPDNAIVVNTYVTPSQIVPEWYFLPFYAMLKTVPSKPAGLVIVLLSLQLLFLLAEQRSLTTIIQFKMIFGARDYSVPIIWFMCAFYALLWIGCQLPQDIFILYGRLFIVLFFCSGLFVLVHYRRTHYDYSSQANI

Target: T1, PfATAD3-3xHA (PF3D7_0707400, ATPase family AAA+ domain containing protein 3 of P. falciparum) (P. falciparum) (UniProt C0H4M1)
T1 sequence: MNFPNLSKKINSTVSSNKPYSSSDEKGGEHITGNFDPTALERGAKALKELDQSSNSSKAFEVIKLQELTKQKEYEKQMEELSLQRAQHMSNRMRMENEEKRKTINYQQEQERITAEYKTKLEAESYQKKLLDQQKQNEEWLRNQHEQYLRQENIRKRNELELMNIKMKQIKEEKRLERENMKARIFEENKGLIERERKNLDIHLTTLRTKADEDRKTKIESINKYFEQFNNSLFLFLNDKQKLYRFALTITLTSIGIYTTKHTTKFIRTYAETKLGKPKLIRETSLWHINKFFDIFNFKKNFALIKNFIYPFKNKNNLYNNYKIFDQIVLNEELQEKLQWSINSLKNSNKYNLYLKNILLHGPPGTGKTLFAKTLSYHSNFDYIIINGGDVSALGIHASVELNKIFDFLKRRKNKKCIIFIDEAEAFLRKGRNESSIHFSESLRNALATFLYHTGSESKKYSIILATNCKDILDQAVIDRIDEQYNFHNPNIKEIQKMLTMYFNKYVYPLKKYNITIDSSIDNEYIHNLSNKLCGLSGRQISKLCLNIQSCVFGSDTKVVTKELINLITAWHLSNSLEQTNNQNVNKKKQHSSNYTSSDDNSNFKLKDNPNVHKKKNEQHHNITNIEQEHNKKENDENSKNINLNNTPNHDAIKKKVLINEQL
Assay: affinity purification with mass spectrometry; anti-HA magnetic beads; parasite pellets of PfATAD3-HA/TOM22-mNG parasites solubilised with 2% digitonin overnight at 4 C; beads incubated with supernatant overnight at 4 C; washed three times with Native Wash buffer (25 mM HEPES, 10 mM MgCl2, 50 mM KCl, 100 mM NaCl, 0.2% digitonin); untagged NF54 wildtype parasites as negative control; triplicate, LFQ

Row | binding | Molecule
1 | binds | PfTIM23 (Translocase of the Inner Mitochondrial Membrane 23)
2 | binds | PfTIM50 (Translocase of the Inner Mitochondrial Membrane 50)
3 | no binding | cytochrome b (from UniProt Q02768 1-376)
4 | no binding | cytochrome c oxidase III
5 | binds | shewanella-like protein phosphatase (enzyme)
6 | binds | syntaxin
7 | binds | B1
8 | binds | B2
9 | no binding | B3

Source: article PMC13249166
